Measurements from patent US20090035215A1 (priority 2006, published 2009).

Assay: general procedure: Fmoc solid-phase peptide synthesis; Rink amide resin; DCC, HOBt; HBTU/HOBT/diisopropyl ethyl amine for silane acid coupling
Details: whole synthesis

## 4-[3-(Ethoxy-diisopropyl-silanyl)-propylcarbamoyl]-butyric-Val-βAla-Phe-Gly-NH2
Scale 0.05 mmol
  isolated yield: 12%

## (Di-tert-butyl-hydroxy-silanyl)-acetyl-Val-βAla-Phe-Gly-NH2
Scale 69 μM
  isolated yield: 33%
